Measured values as given in US11993604B2, “Substituted pyrazolo[4,3-H]quinazolines as protein kinase inhibitors” (SHENGKE PHARMACEUTICALS (JIANGSU) LTD., priority 2017, dated 2024).
Some entries share one result that the patent states for a list of compounds.

By UniProt entry, the sequences of proteins in these tests, tags left out.
UniProt Q00534, whole entry, species assumed: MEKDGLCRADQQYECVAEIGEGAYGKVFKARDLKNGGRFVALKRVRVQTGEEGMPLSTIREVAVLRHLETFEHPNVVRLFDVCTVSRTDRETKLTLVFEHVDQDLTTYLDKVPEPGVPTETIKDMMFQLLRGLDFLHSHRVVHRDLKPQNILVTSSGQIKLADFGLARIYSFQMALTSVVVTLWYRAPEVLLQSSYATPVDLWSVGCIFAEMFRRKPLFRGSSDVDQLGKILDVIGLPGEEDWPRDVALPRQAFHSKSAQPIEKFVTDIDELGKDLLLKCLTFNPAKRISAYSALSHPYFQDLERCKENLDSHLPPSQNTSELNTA

biological target: CDK6/cyclin D1 (Homo sapiens, UniProt Q00534); assay: Biochemical kinase inhibition test, CDK6/cyclin D1 (similar method); conditions: CDK6/cyclin D1 versus CDK4/cyclin D1
Description: Potency determination of biochemical kinase inhibition test. Kinase activity test and IC50 determination. Firstly, 10 ng of recombinant CDK4/Cyclin D1 (Life Technologies PV4204) was diluted in kinase buffer (20 mM Tris pH 7.5, 10 mM MgCl2, 0.01% NP-40, 2 mM DTT), and was incubated with inhibitors at the indicated concentration at room temperature for 30 minutes. The kinase reaction was initiated by adding […] (1.5 μM) of recombinant retinoblastoma protein, 5 μM ATP and 10μ Ci γ-32P-ATP. The reaction was incubated at 30° C. for 20 minutes, and was terminated by adding 2× Laemmli sample buffer, heated at 95° C. for three minutes, and the resulting solution was dissolved with 12% acrylamide SDS-PAGE and autoradiographed. A densitometer (Bio-Rad) was used to quantify the corresponding phosphorylated substrate protein bands. The resulting density values were plotted as a function of the log drug concentration using Prism 4 Graphpad software. IC50 values were determined by plotting a non-linear regression curve with a variable slope.
The inhibitory activity of the compounds disclosed herein against CDK6/cyclin D1 was tested by a similar method.
The compounds were tested in a three-fold serial dilution from the starting concentration of 10 μM, over 10-fold of IC50. The control compound, staurosporine, was tested in a four-fold serial dilution from the starting concentration of 20 μM, over 10-fold of IC50. These reactions took place in the presence of 10 μM ATP.

Row | SMILES | selectivity for CDK6/cyclin D1 relative to CDK4/cyclin D1 (enzyme inhibitory activity)
1 | Cc1nc(Nc2ncc3ccc4cnn(C(C)C)c4c3n2)ccc1N1CCN(C)CC1 [Compound I-6] | more than 10 times
2 | CCN1CCN(c2ccc(Nc3ncc4ccc5cnn(C(C)C)c5c4n3)nc2C)CC1 [Compound I-9] | more than 10 times
3 | Cc1nc(Nc2ncc3ccc4cnn(C(C)C)c4c3n2)ccc1N1CCOCC1 [Compound I-18] | more than 10 times
4 | Cc1nc(Nc2ncc3ccc4cnn(C5CCCC5)c4c3n2)ccc1N1CCNCC1.Cl [Compound I-37] | more than 10 times
5 | Cc1cc2cnc(Nc3ccc(N4CCN(C)CC4)cn3)nc2c2c1cnn2C(C)C [Compound I-68] | more than 5 times
6 | CCN1CCN(c2ccc(Nc3ncc4cc(C)c5cnn(C(C)C)c5c4n3)nc2)CC1 [Compound I-69] | more than 5 times
7 | CC(=O)c1cc2cnc(Nc3ccc(N4CCNCC4)cn3)nc2c2c1cnn2C(C)C.Cl [Compound I-75] | more than 10 times
8 | CC(=O)c1cc2cnc(Nc3ccc(N4CCN(C)CC4)cn3)nc2c2c1cnn2C(C)C [Compound I-77] | more than 10 times
9 | CCN1CCN(c2ccc(Nc3ncc4cc(C(C)=O)c5cnn(C(C)C)c5c4n3)nc2)CC1 [Compound I-78] | more than 10 times
10 | CC(=O)c1cc2cnc(Nc3ccc(N4CCOCC4)cn3)nc2c2c1cnn2C(C)C [Compound I-79] | more than 10 times
